Experimental data: PMC5426757
These are yes or no findings as the source states them, for the method shown. Binding seen in cells or lysates may run through a third protein. Some binding calls cover weakened binding; strength is not graded here.

The chains behind the UniProt entries cited, without tags or fusion partners. Residues count along the entry.
UniProt P21860, residues 20-1342: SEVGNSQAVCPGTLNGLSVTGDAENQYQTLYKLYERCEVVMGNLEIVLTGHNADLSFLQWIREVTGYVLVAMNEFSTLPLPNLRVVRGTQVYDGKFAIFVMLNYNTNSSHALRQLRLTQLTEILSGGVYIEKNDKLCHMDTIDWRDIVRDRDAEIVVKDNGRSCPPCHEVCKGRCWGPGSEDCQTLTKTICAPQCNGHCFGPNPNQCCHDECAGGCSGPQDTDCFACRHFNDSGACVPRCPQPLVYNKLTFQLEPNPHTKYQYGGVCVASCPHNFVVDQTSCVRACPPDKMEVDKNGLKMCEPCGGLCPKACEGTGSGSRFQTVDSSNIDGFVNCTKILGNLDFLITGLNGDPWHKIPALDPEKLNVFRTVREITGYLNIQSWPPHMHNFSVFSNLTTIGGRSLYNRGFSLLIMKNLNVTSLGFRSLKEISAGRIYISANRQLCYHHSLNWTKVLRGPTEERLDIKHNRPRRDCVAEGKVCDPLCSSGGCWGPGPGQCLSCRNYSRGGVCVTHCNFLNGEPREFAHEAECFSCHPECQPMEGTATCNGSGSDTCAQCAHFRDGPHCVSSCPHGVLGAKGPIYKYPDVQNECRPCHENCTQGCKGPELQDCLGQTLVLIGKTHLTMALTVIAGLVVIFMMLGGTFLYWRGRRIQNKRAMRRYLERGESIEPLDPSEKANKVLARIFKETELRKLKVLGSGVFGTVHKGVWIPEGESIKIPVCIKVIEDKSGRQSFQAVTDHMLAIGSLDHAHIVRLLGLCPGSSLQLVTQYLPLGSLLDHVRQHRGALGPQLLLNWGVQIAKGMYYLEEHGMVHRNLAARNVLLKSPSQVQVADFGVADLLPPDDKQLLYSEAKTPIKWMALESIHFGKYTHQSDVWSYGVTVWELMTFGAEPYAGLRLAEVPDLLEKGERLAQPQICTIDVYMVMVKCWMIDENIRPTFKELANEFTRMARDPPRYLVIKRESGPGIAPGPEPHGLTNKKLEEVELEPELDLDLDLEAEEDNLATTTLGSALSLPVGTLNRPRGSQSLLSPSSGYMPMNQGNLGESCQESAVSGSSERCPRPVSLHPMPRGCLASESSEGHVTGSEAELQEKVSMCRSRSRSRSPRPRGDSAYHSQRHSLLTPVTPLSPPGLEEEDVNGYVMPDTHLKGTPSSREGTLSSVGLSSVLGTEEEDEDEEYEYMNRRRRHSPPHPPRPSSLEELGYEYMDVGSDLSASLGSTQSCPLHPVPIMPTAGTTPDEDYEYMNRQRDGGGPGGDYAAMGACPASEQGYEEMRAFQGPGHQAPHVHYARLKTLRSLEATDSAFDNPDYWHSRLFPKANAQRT
UniProt P03372: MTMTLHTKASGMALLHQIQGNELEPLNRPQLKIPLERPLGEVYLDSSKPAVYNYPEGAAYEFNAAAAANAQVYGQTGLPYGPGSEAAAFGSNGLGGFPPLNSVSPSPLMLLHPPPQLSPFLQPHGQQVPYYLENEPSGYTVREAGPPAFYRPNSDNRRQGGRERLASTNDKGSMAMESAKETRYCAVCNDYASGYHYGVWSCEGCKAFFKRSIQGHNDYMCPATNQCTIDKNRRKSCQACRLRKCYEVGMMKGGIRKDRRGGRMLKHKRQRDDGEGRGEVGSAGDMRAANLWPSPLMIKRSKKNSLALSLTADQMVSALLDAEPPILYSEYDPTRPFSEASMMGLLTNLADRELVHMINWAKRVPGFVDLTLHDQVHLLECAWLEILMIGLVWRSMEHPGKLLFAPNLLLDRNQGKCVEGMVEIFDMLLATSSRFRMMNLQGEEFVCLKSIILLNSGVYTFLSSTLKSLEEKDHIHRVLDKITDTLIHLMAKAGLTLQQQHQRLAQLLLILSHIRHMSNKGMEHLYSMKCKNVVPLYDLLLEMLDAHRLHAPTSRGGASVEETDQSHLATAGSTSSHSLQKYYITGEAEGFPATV

Assays:
Test in all cases: co-IP; lysates (Triton X100 lysis buffer) of HEK 293 cells transfected with HER2, HER3 and ERα alone or together, starved 48 h in 0.5% FCS, no estrogen, with or without HRG (5 ng/mL, 10 min); immunoprecipitated with anti-HER2 (trastuzumab), anti-HER3 (Roche Ab208) or anti-ERα (Cell Signaling 8644), Western blot for the partner
[1] = molecular target: human epidermal growth factor receptor 3 (HER3) (human) (UniProt P21860)
[2] = molecular target: human epidermal growth factor receptor 2 (HER2) (human) (UniProt P04626)
[3] = molecular target: estrogen receptor alpha (ERα) (human) (UniProt P03372)

Row | binding [1] | binding [2] | binding [3] | Substance
1 | binds | binds |  | estrogen receptor alpha (ERα) (from UniProt P03372 1-595)
2 |  |  | binds | human epidermal growth factor receptor 3 (HER3) (from UniProt P21860 20-1342)
3 |  |  | binds | human epidermal growth factor receptor 2 (HER2) (from UniProt P04626 23-1255)
